Source: PubChem BioAssay AID686938 (Drosophila RNAi Screening Center, 2013)
The deposit covers about 23,000 reagents; this is an unselected part of those that have a named target and a result. Of all reagents, 75 (0.33%) were called active. 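Raw plate signals without normalisation; calls rest on plate z-scores that were not deposited; ratio present for only 364 wells.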 A number with no mark means an inactive call. Reagents against one gene are numbered here. Not given: the dose of the treatment.

Test: 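Looking for CRAC channel components and the factors controlling them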 (primary screen)
Cells: Drosophila S2R+ cells
Knock-down reagent: long dsRNA against Drosophila genes, about 0.25 µg dsRNA per well, roughly 10,000 cells
Timing: 5 days of knock-down before the calcium assay
Challenge: thapsigargin (SERCA pump blocker) to empty calcium stores; entry signal taken 4 min after adding it
Measured: 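Per-well fluo-4 fluorescence in two replicates, unnormalised, measured in resting cells and 4 min after store depletion by the SERCA blocker thapsigargin; ratio of the two present in few wells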
Scale: calcium entry signal: higher = stronger calcium signal after store depletion; resting calcium signal: higher = higher resting calcium signal
Units: calcium entry signal in fluorescence units; resting calcium signal in fluorescence units
Call rule: 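Hit if the duplicate-averaged plate z-score for entry over resting signal is under −3; wells with weak total dye signal (Fmax z < −2) or more than 5 off-targets removed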
Meaning of the calls: active = strongly reduced calcium entry; inactive = no strong reduction

Depletion of Grip75 gave: calcium entry signal, replicate 1 = 4.10e7; calcium entry signal, replicate 2 = 4.07e7; resting calcium signal, replicate 1 = 1.93e7; resting calcium signal, replicate 2 = 1.93e7. For mei-41, the entry reads calcium entry signal, replicate 1 = 2.37e7; calcium entry signal, replicate 2 = 2.20e7; resting calcium signal, replicate 1 = 1.26e7; resting calcium signal, replicate 2 = 9.96e6. For Strn-Mlck #1 the deposit lists calcium entry signal, replicate 1 = 3.28e7; calcium entry signal, replicate 2 = 2.64e7; resting calcium signal, replicate 1 = 1.49e7; resting calcium signal, replicate 2 = 1.29e7. Against Strn-Mlck #2, the values are calcium entry signal, replicate 1 = 1.65e7; calcium entry signal, replicate 2 = 4.34e7; resting calcium signal, replicate 1 = 8.35e6; resting calcium signal, replicate 2 = 2.09e7. After knock-down of Strn-Mlck #3 the results were calcium entry signal, replicate 1 = 3.58e7; calcium entry signal, replicate 2 = 6.06e7; resting calcium signal, replicate 1 = 1.42e7; resting calcium signal, replicate 2 = 2.57e7. Knock-down of Strn-Mlck #4 gave: calcium entry signal, replicate 1 = 2.79e7; calcium entry signal, replicate 2 = 3.12e7; resting calcium signal, replicate 1 = 1.18e7; resting calcium signal, replicate 2 = 1.54e7.

With knock-down of ttm50 the results were calcium entry signal, replicate 1 = 3.69e7; calcium entry signal, replicate 2 = 4.02e7; resting calcium signal, replicate 1 = 1.66e7; resting calcium signal, replicate 2 = 1.88e7. Against Vsx2 #1, the entry reads calcium entry signal, replicate 1 = 2.85e7; calcium entry signal, replicate 2 = 3.06e7; resting calcium signal, replicate 1 = 1.69e7; resting calcium signal, replicate 2 = 1.79e7. With knock-down of Vsx2 #2, the screen gave calcium entry signal, replicate 1 = 2.49e7; calcium entry signal, replicate 2 = 3.47e7; resting calcium signal, replicate 1 = 1.29e7; resting calcium signal, replicate 2 = 1.68e7. Silencing of Vsx2 #3 gave: calcium entry signal, replicate 1 = 2.51e7; calcium entry signal, replicate 2 = 4.77e7; resting calcium signal, replicate 1 = 1.24e7; resting calcium signal, replicate 2 = 2.28e7. Vsx2 #4 scored calcium entry signal, replicate 1 = 2.53e7; calcium entry signal, replicate 2 = 5.09e7; resting calcium signal, replicate 1 = 1.31e7; resting calcium signal, replicate 2 = 2.72e7. After knock-down of Vsx2 #5, the screen gave calcium entry signal, replicate 1 = 5.71e7; calcium entry signal, replicate 2 = 2.88e7; resting calcium signal, replicate 1 = 2.85e7; resting calcium signal, replicate 2 = 1.33e7.

Knock-down of Vsx2 #6 resulted in: calcium entry signal, replicate 1 = 4.91e7; calcium entry signal, replicate 2 = 4.68e7; resting calcium signal, replicate 1 = 2.35e7; resting calcium signal, replicate 2 = 1.97e7. Against CG11454, the values are calcium entry signal, replicate 1 = 3.88e7; resting calcium signal, replicate 1 = 1.77e7.

Part of the list above, reformatted.
gene knocked down,reagent no.,"calcium entry signal, replicate 1","calcium entry signal, replicate 2","resting calcium signal, replicate 1","resting calcium signal, replicate 2"
Strn-Mlck,2,1.65e7,4.34e7,8.35e6,2.09e7
Strn-Mlck,3,3.58e7,6.06e7,1.42e7,2.57e7
